Source: paper PMC5402663
No constants are given. Whether binding was seen depends on the method and setting. In cells and extracts the contact can be indirect. Some results given as binding are weak or reduced against the parent protein; the word gives no strength.

How the values were obtained:
[1] = target: T1, glypican-1 (mouse) (mouse) (UniProt Q9QZF2); experiment: co-IP; cortex lysates of 12-month-old mice in 1% CHAPS, 50 mM HEPES, 10 mM EDTA, 150 mM NaCl, pH 7.4; anti-DcR3, anti-syndecan-1, anti-glypican-1 or anti-Aβ (6E10) at 4 °C overnight, protein G beads, Western blot
T1 sequence: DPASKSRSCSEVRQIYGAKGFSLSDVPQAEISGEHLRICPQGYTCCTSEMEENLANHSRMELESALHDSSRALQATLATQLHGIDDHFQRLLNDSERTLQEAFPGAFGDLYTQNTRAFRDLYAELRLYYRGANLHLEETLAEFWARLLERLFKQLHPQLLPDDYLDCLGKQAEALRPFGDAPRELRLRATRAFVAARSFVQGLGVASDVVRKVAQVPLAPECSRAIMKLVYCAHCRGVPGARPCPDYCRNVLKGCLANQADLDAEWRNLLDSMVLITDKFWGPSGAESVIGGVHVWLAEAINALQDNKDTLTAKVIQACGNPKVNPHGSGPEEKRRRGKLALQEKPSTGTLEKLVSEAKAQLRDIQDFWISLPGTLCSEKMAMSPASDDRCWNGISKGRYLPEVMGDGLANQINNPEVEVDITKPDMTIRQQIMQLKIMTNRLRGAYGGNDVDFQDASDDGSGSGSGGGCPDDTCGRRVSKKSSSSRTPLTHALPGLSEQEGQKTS

[2] = target: T2, syndecan-1 (mouse) (mouse) (UniProt P18828); experiment: as above
T2 sequence: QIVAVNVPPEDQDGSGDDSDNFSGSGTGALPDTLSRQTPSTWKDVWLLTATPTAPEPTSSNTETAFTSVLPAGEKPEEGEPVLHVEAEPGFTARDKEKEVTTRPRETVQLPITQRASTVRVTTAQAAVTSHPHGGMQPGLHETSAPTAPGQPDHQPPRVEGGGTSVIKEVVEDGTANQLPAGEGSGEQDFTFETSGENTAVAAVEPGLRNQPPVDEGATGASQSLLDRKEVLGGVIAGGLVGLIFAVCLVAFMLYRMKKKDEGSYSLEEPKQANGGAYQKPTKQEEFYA

binding [1]: binds
binding [2]: binds
B1: Decoy receptor 3 (DcR3)/TNFRSF6B, human, transgene in mice (receptor, UniProt O95407 30-300)
chain: VAETPTYPWRDAETGERLVCAQCPPGTFVQRPCRRDSPTTCGPCPPRHYTQFWNYLERCRYCNVLCGEREEEARACHATHNRACRCRTGFFAHAGFCLEHASCPPGAGVIAPGTPSQNTQCQPCPPGTFSASSSSSEQCQPHRNCTALGLALNVPGSSSHDTLCTSCTGFPLSTRVPGAEECERAVIDFVAFQDISIKRLQRLLQALEAPEGWGPTPRAGRAALQLKLRRRLTELLGAQDGALLVRLLQALRVARMPGLERSVRERFLPVH
